The target of this experiment is T1, soybean 2S albumin large subunit (soybean) (UniProt P19594).
T1 sequence: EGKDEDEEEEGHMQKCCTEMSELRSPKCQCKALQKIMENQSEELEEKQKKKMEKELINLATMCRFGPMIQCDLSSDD
The experiment is described as follows: condition: only with the reducing agents BME, TCEP or DTT; SDS-PAGE after treatment with reducing agents; purified lunasin-containing complex (15.5 ug) treated for 1 hour at room temperature with BME (14.3-143 mM), TCEP (1-10 mM) or DTT (0.2-2 mM); both purified.

These are yes or no findings as the source states them, for the method shown.

As to SKWQHQQDSCRKQLQGVNLTPCEKHIMEKIQGRGDDDDDDDDDN [lunasin purified from soybean white flake (44 amino acids, with C-terminal asparagine)], the binding result is reported as “no binding”.

Source of the values: paper PMC3326064.
